PubChem BioAssay AID1259254, NCATS – 2017

Test: 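Genome-wide screen for genes that prevent DNA re-replication in cancer cells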 (primary screen)
Cell system: human HCT116 colorectal cancer cells
Reagent: single siRNA against human genes
Timing: 3 days
Measurement: 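Nuclei stained with Hoechst and imaged; cell-cycle phase assigned by DNA content; G2 share scaled per plate, non-targeting siRNA 0%, GMNN siRNA 100%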
Scale: G2 robust z-score: higher = more G2 cells, more excess DNA replication
Hit rule: 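An siRNA counts as active if its G2 robust z-score lies at least 5 MADs above the screen median; here such calls match roughly 38% of GMNN control or more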
The whole screen tested about 59,000 reagents; below is a part drawn at random. Of all reagents, about 1,550 (2.6%) were called active. 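G2 share is only a proxy for re-replication; each gene was hit by three separate siRNAs, and active genes were retested.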 The numbers tell different reagents against one gene apart. Not all columns of the deposit are shown. The record does not give: the amount of reagent.

ZNF547 #1 scored G2 robust z-score -0.345; inactive.
For ZNF547 #2, the entry reads G2 robust z-score -0.644; inactive.
With knock-down of ZNF547 #3 the results were G2 robust z-score 0.0761; inactive.
Knock-down of GALNS #1 came out at: G2 robust z-score -0.605; inactive.
Against GALNS #2, the entry reads G2 robust z-score -1.14; inactive.
GALNS #3 showed G2 robust z-score -0.862; inactive.
ENHO #1 gave G2 robust z-score -0.122; inactive.
After knock-down of ENHO #2, the screen gave G2 robust z-score 1.57; inactive.
ENHO #3 gave G2 robust z-score 0.753; inactive.
For CT62 #1, the values are G2 robust z-score 3.88; inactive.
After knock-down of CT62 #2, the screen gave G2 robust z-score 0.817; inactive.
For CT62 #3, the values are G2 robust z-score -0.762; inactive.

5 entries already listed, sorted by “G2 robust z-score”, descending.
ENHO #2: G2 robust z-score = 1.57; Outcome = inactive
ENHO #1: G2 robust z-score = -0.122; Outcome = inactive
GALNS #1: G2 robust z-score = -0.605; Outcome = inactive
GALNS #3: G2 robust z-score = -0.862; Outcome = inactive
GALNS #2: G2 robust z-score = -1.14; Outcome = inactive

Additional entries follow:
For B3GAT1 #1 the deposit lists G2 robust z-score -0.413; inactive.
B3GAT1 #2 showed G2 robust z-score 0.212; inactive.
After knock-down of B3GAT1 #3, the screen gave G2 robust z-score -0.295; inactive.
After knock-down of RBM22P1 #1 the results were G2 robust z-score -0.5; inactive.
For RBM22P1 #2, the entry reads G2 robust z-score -0.0446; inactive.
After knock-down of RBM22P1 #3, the record shows G2 robust z-score 1.86; inactive.
BRMS1 #1 scored G2 robust z-score 0.162; inactive.
With knock-down of BRMS1 #2, the record shows G2 robust z-score -1.03; inactive.
BRMS1 #3 showed G2 robust z-score 0.388; inactive.
Knock-down of FMO2 #1 resulted in: G2 robust z-score -0.473; inactive.
Against FMO2 #2, the entry reads G2 robust z-score 4.36; inactive.
FMO2 #3 gave G2 robust z-score -0.543; inactive.
NUP205 #1 scored G2 robust z-score 1.38; inactive.
After knock-down of NUP205 #2 the results were G2 robust z-score 1.63; inactive.
After knock-down of NUP205 #3, the screen gave G2 robust z-score 2; inactive.
Silencing of LMAN1L #1 came out at: G2 robust z-score 0.226; inactive.
LMAN1L #2 gave G2 robust z-score -0.432; inactive.
LMAN1L #3 gave G2 robust z-score -0.861; inactive.
